# Laboratory results taken from PubChem BioAssay AID493014 (National Center for Advancing Translational Sciences (NCATS), 2011).
# Out of some 340,000 compounds screened, about 170 (0.05%) were called active. The inconclusive results got no clear call from the source; some entries with a clear call stand among them for comparison. Calls come from the whole dose curve; as a rule, active = well fitted inhibition curve with a large enough effect in the signal ratio, with a control signal flat (not every such curve was filed as active); inconclusive = small, poorly fitted or top-dose-only effect, or effect the other way, or a change in a side signal; inactive = flat fitted curve, though single readings scatter; the % refers to the signal ratio. A potency beside an inconclusive call is a rough fit, not a confirmed value.
# Assay: qHTS Assay to Find Inhibitors of Chronic Active B-Cell Receptor Signaling;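 for activity change, negative = inhibition: plate controls were basal doxycycline-induced cells for no effect and cells given 10 µM MG132 for full effect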
# Details: ABC-DLBCL IkBa-CBG/CBR reporter, luminescence ratio (green luciferase fused to IkBa over red control in TMD8 lymphoma cells), 4 h; activity change, negative = inhibition: at 46.1 µM (top of the series) unless noted
# Method in brief: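 TMD8 ABC-DLBCL cells carrying doxycycline-inducible green luciferase fused to IkappaBalpha plus unfused red luciferase were exposed to compounds (up to 46 uM) for 4 hrs at 37C. Activity came from the overlap-corrected green/red luminescence ratio.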
# Potency is the fitted concentration of half-maximal effect.
SMILES,Potency,"activity change, negative = inhibition"
CN(C(=O)COc1ccccc1)c1nnc(-c2ccncc2)s1,"inconclusive: 29.1 µM [falling, single point]",
Clc1ccccc1C1=CC(c2ccco2)n2ncnc2N1 (stereo not drawn),,inactive
Nc1ccccc1Nc1cc(-c2cccc(Cl)c2)nn1-c1ccccc1,,inconclusive: 0.635%
COc1ccc(-c2csc(NC(=O)c3ccccc3F)c2C(=O)O)cc1,"inconclusive: 15.8 µM [falling, partial curve, poor fit]",
C=CCC[C@@H](Cc1ccc(F)cc1)C(=O)OC[C@H](C)NC(=O)[C@H](CC=C)CC(=O)N(CCO)Cc1ccccc1,,inconclusive: -12.4%
CCOc1ccc(C(=S)NC2CCCCC2)cc1OC,,inconclusive: 14.4%
Cc1ccc(C2(C)NC(=O)N(CC(=O)Nc3ccc(Cl)c(S(=O)(=O)N4CCCCC4)c3)C2=O)cc1 (stereo not drawn),,inconclusive: 4.05%
C#C[C@]1(O)CC[C@H]2[C@@H]3CCc4cc(OC)ccc4[C@H]3CC[C@@]21C,,inconclusive: -8.69%
CC(C)N1CCc2c(sc(NC(=O)c3ccc(S(=O)(=O)N4CCOCC4)cc3)c2C(N)=O)C1,"inconclusive: 23.1 µM [falling, single point]",
COc1ccc(CN(C)CC(=O)Nc2sc3c(c2C#N)CCC3)cc1OC,,inactive
CN(N=Nc1ccc([N+](=O)[O-])cc1)c1ccccc1,,inconclusive: 8.85%
Cc1ccc(-n2cccn2)c(CN2CCCC(C(=O)c3sccc3C)C2)c1 (stereo not drawn),,inactive
O=C(Nc1sc2c(c1C(=O)O)CCC2)c1ccccc1Cl,"inconclusive: 12.6 µM [falling, partial curve]",
O=C(Nc1nc2ccc(F)cc2s1)C1CCN(S(=O)(=O)c2cc([N+](=O)[O-])ccc2Cl)CC1,,inconclusive: 17.4%
CCn1c(SCc2ccc(C(=O)Nc3cc(C)cc(C)c3)cc2)nnc1-c1ccncc1,,inconclusive: -10.8%
c1ccc(-n2cnc3cc(NCc4ccco4)ccc32)cc1,"inconclusive: 35.5 µM [falling, single point]",
CN(CCc1ccccc1)C(=O)CCc1nnc(Cc2ccc3c(c2)OCO3)o1,,inconclusive: 9.86%
Cc1c(CCC(=O)O)c(=O)oc2cc3occ(-c4ccc(Br)cc4)c3cc12,"inconclusive: 35.5 µM [falling, partial curve, poor fit]",
CSCCC(NC(=O)COc1ccccc1)C(=O)OCCOc1ccc(C)cc1 (stereo not drawn),,inconclusive: 6.87%
O=S(=O)(c1ccc(F)cc1F)N1CCCN(c2ccc(C(F)(F)F)cn2)CC1,,inactive
C[n+]1cccc(C2C(C#N)=C(N)Oc3c2ccc2ccccc32)c1 (stereo not drawn),"inconclusive: 17.8 µM [falling, partial curve, poor fit]",
CC(C)CN(C(=O)CSc1nc2ccccc2o1)c1c(N)n(Cc2ccccc2)c(=O)[nH]c1=O,,inconclusive: -15%
Cc1ccc(C(NC(=O)N2CCCC2)C(Cl)Cl)cc1F (stereo not drawn),"inconclusive: 22.4 µM [falling, partial curve]",
CCCCCc1ccc(OCCC[n+]2ccccc2)c(CCCCC)c1,,inconclusive: 19.9%

# Gathered by group, the compounds so far with an aryl methoxy group.
SMILES,Potency,"activity change, negative = inhibition"
COc1ccc(-c2csc(NC(=O)c3ccccc3F)c2C(=O)O)cc1,"inconclusive: 15.8 µM [falling, partial curve, poor fit]",
CCOc1ccc(C(=S)NC2CCCCC2)cc1OC,,inconclusive: 14.4%
C#C[C@]1(O)CC[C@H]2[C@@H]3CCc4cc(OC)ccc4[C@H]3CC[C@@]21C,,inconclusive: -8.69%
COc1ccc(CN(C)CC(=O)Nc2sc3c(c2C#N)CCC3)cc1OC,,inactive

# The listing continues:

SMILES,Potency,"activity change, negative = inhibition"
O=C(O)/C=C/c1cccc(OCc2ccccc2)c1,"inconclusive: 11.2 µM [falling, partial curve]",
COc1ccc(C(C)=O)cc1CSc1nc2ccccc2c(=O)n1-c1cccc(C)c1,,inconclusive: 2.36%
CC1=C(CC(=O)c2ccc(Cl)cc2)C(=O)c2ccccc2C1=O,"inconclusive: 14.1 µM [falling, single point]",
Cc1nc2c(-c3ccc(F)cc3)cnn2c(N)c1-c1ccccc1,,inconclusive: -14.2%
Cc1ccc(C(=O)Nc2cc(Cl)ccc2OC(=O)c2ccc(C)cc2)cc1,"inconclusive: 11.2 µM [falling, partial curve]",
Cc1ccc(F)c(NC(=O)c2ccc(Cn3cc(Cl)cn3)cc2)c1,,inconclusive: -6.25%
CCN(CC)c1ccc(/C=N/NC(=O)c2ccoc2C)cc1,"inconclusive: 31.6 µM [rising, single point]",
Cc1ccc(C2C(C#N)=C(N)Oc3c2sc2ccccc32)o1 (stereo not drawn),,inconclusive: 9.11%
Cc1ccc(CNC(=O)c2cc(COc3c(F)cccc3F)on2)s1,,inconclusive: -12.3%
COc1cc(C(=O)N(Cc2cc3ccccc3[nH]c2=O)CC2CCCO2)cc(OC)c1OC (stereo not drawn),,inconclusive: -1.85%
N#Cc1cc(-c2ccccc2)oc1NC(=O)c1ccco1,"inconclusive: 1.3 µM [rising, partial curve, poor fit]",
CN(CC(=O)Nc1ccccc1Cl)C(=O)COC(=O)c1ccc([N+](=O)[O-])cc1Cl,,inconclusive: 11.8%
C=CCNc1nc(N)c([N+](=O)[O-])c(NCc2ccccc2)n1,,inconclusive: 2.65%
CCCCN1C(=S)NC[C@@H]1Cc1cccc2ccccc12,,inconclusive: -5.66%
CN1/C(=C\C=N\NC(=O)c2ccc(O)cc2)C(C)(C)c2ccccc21,"inconclusive: 23.1 µM [falling, partial curve]",
Nc1ccc(C(=O)CC(=O)Nc2ccc(Cl)cc2)cc1,,inconclusive: -14.8%
Cc1ccc(NC(=O)[C@@H]2CCCN2S(=O)(=O)c2ccccc2C(F)(F)F)cc1S(=O)(=O)N1CCOCC1,,inconclusive: -7.31%
N#C/C(N=Nc1ccccc1O)=N\Nc1ccccc1O,"inconclusive: 0.92 µM [falling, partial curve, poor fit]",
Cc1ccc(Cl)cc1NC(=O)C1CCN(S(C)(=O)=O)CC1,,inconclusive: 19.5%
COc1cccc(CNC(=O)c2cc3c(C)nc4ccccc4c3o2)c1,,inconclusive: -2.01%
C/C(=N\Nc1cc(C)nc(NCc2ccccc2)n1)c1cccc([N+](=O)[O-])c1,,inactive
COc1cc(C(=O)Nc2nc(-c3cccs3)cs2)cc(OC)c1OC,,inactive
COc1ccc(Cn2c(C)nc([N+](=O)[O-])c2SCC(=O)O)cc1[N+](=O)[O-],,inconclusive: 9.73%
CCOc1ccccc1-c1nc(C(N)=O)c2[nH]c(=O)n(-c3cccc(C)c3)c2n1,,inconclusive: -6.4%
